Assay results published in PubChem BioAssay.
The list shows a part of the results. Results with a measured potency or affinity are listed apart. The source made no clear call on entries shown without one.

Test: Polyglutamine toxicity reduction dose response, whole organism Drosophila SCA1 model (AID 1595)
Conditions: at 1 µM, stronger effect = higher value

Row | Structure (SMILES) | suppression of toxicity
1 | COc1ccc(C(=O)c2ccccc2)c(O)c1 | 11.4
2 | CC1(C)O[C@@H]2CC3C4CCC5=CC(=O)C=C[C@]5(C)[C@@]4(F)[C@@H](O)C[C@]3(C)[C@]2(C(=O)CO)O1 (stereo partly drawn) | 0
3 | NNC(=O)c1ccncc1 | 1.43
4 | C1N2CN3CN1CN(C2)C3 | 0
5 | CN1CCc2c(c3ccccc3n2Cc2ccccc2)C1 | 4.29
6 | NCCCCC(N)C(=O)NCC(=O)NC(Cc1cnc[nH]1)C(=O)NC(CCCCN)C(=O)O (stereo not drawn) | 0
7 | COc1ccc2c(c1OC)C(=O)O[C@H]2[C@@H]1c2ccccc2CCN1C | 8.57
8 | CN[C@@H]1[C@H](OC2[C@H](O[C@H]3[C@H](O)[C@@H](O)[C@H](N=C(N)N)[C@@H](O)[C@@H]3N=C(N)N)O[C@@H](C)[C@]2(O)C=O)O[C@@H](CO)[C@H](O)[C@H]1O (stereo partly drawn) | 2.85
9 | Cc1cc(C(C)(C)C)c(O)c(C)c1CC1=NCCN1 | 12.9
10 | O=C(O)c1cc(=O)c2ccccc2[nH]1 | 1.43
11 | NC(COCc1ccccc1)C(=O)O (stereo not drawn) | 0
12 | NS(=O)(=O)c1cc2c(cc1C(F)(F)F)NC(Cc1ccccc1)NS2(=O)=O (stereo not drawn) | 7.14
13 | C[N+]1(C)C2CC(OC(=O)[C@@H](CO)c3ccccc3)CC1C1OC12 (stereo partly drawn) | 4.29
14 | CC(C)[N+](C)(CCOC(=O)C1c2ccccc2Oc2ccccc21)C(C)C | 4.29
15 | CN[C@@H]1C(O)[C@@H](O[C@@H]2[C@@H](O)[C@H](O[C@H]3OC(CN)=CC[C@H]3N)[C@@H](N)C[C@H]2N)OC[C@]1(C)O (stereo partly drawn) | 1.43
16 | CC(C)(Sc1cc(C(C)(C)C)c(O)c(C(C)(C)C)c1)Sc1cc(C(C)(C)C)c(O)c(C(C)(C)C)c1 | 0
18 | CC1(C)C2CC[C@]3(C)C(C(=O)C=C4[C@@H]5C[C@@](C)(C(=O)O)CC[C@]5(C)CC[C@]43C)[C@@]2(C)CC[C@@H]1OC(=O)CCC(=O)O (stereo partly drawn) | 0
19 | CC(C)(C)CC(C)(C)c1ccc(O)c(Cc2ccc(Cl)cc2Cl)c1 | 0
20 | NC(=O)c1cnccn1 | 21.4

Row | Structure (SMILES) | suppression of toxicity
21 | O=C(OCc1ccccc1)c1ccccc1 | 1.43
22 | CC(CN(C)C)CN1c2ccccc2CCc2ccccc21 (stereo not drawn) | 0
23 | OC(CCN1CCCCC1)(c1ccccc1)c1ccccc1 | 4.29
24 | COc1cc(CNC(=O)CCCC/C=C/C(C)C)ccc1O | 1.43
25 | CO/N=C(\C(=O)NC1C(=O)N2C(C(=O)O)=C(CSc3nc(=O)c(O)nn3C)CS[C@H]12)c1csc(N)n1 (stereo partly drawn) | 5.71
26 | CC1=CC(=O)c2ccccc2C1=O | 0
27 | c1ccc2[nH]c(-c3cscn3)nc2c1 | 1.43
28 | CC12CCC3c4ccc(OCc5ccccc5)cc4CCC3C1C[C@@H](O)[C@@H]2O (stereo partly drawn) | 0
29 | CCOC(=O)CCCCCCCCCCCCC1C=CCC1 (stereo not drawn) | 0
30 | CC(=O)Oc1cccc(O)c1 | 2.86
31 | CCCN(CCC)S(=O)(=O)c1ccc(C(=O)O)cc1 | 4.29
32 | Cn1c(=O)c2c(ncn2C)n(C)c1=O | 0
33 | Oc1c(Cl)cc(Cl)c(Cl)c1Cc1c(O)c(Cl)cc(Cl)c1Cl | 0
34 | N#Cc1ccc2c(c1)N(CCCN1CCC(O)CC1)c1ccccc1S2 | 1.43
35 | O=c1cc(-c2ccccc2)oc2cc(O)cc(O)c12 | 1.43
36 | NC(=O)c1ccc([N+](=O)[O-])cc1Cl | 10
37 | COc1ccc2cc(CCC(C)=O)ccc2c1 | 1.43
38 | C/C=C(/C(=C/C)c1ccc(O)cc1)c1ccc(O)cc1 | 1.43
39 | CN(C)CCCN1c2ccccc2CCc2ccc(Cl)cc21 | 1.43

Test: PubChem AID 1597
Conditions: Drosophila SCA1 polyglutamine model, at 1 µM, stronger effect = higher value

Row | Structure (SMILES) | suppression of toxicity
40 | COc1ccc(C(=O)c2ccccc2)c(O)c1 | 11.4
41 | CC1(C)O[C@@H]2CC3C4CCC5=CC(=O)C=C[C@]5(C)[C@@]4(F)[C@@H](O)C[C@]3(C)[C@]2(C(=O)CO)O1 (stereo partly drawn) | 7.14
42 | NNC(=O)c1ccncc1 | 4.29
43 | C1N2CN3CN1CN(C2)C3 | 5.71
44 | CN1CCc2c(c3ccccc3n2Cc2ccccc2)C1 | 5.71
45 | NCCCCC(N)C(=O)NCC(=O)NC(Cc1cnc[nH]1)C(=O)NC(CCCCN)C(=O)O (stereo not drawn) | 0
46 | COc1ccc2c(c1OC)C(=O)O[C@H]2[C@@H]1c2ccccc2CCN1C | 12.1
47 | CN[C@@H]1[C@H](OC2[C@H](O[C@H]3[C@H](O)[C@@H](O)[C@H](N=C(N)N)[C@@H](O)[C@@H]3N=C(N)N)O[C@@H](C)[C@]2(O)C=O)O[C@@H](CO)[C@H](O)[C@H]1O (stereo partly drawn) | 2.86
48 | Cc1cc(C(C)(C)C)c(O)c(C)c1CC1=NCCN1 | 0
49 | O=C(O)c1cc(=O)c2ccccc2[nH]1 | 8.57
50 | NC(COCc1ccccc1)C(=O)O (stereo not drawn) | 1.43
51 | NS(=O)(=O)c1cc2c(cc1C(F)(F)F)NC(Cc1ccccc1)NS2(=O)=O (stereo not drawn) | 7.14
52 | C[N+]1(C)C2CC(OC(=O)[C@@H](CO)c3ccccc3)CC1C1OC12 (stereo partly drawn) | 2.86
53 | CC(C)[N+](C)(CCOC(=O)C1c2ccccc2Oc2ccccc21)C(C)C | 9.29
54 | CN[C@@H]1C(O)[C@@H](O[C@@H]2[C@@H](O)[C@H](O[C@H]3OC(CN)=CC[C@H]3N)[C@@H](N)C[C@H]2N)OC[C@]1(C)O (stereo partly drawn) | 8.57
55 | CC(C)(Sc1cc(C(C)(C)C)c(O)c(C(C)(C)C)c1)Sc1cc(C(C)(C)C)c(O)c(C(C)(C)C)c1 | 2.86
57 | CC1(C)C2CC[C@]3(C)C(C(=O)C=C4[C@@H]5C[C@@](C)(C(=O)O)CC[C@]5(C)CC[C@]43C)[C@@]2(C)CC[C@@H]1OC(=O)CCC(=O)O (stereo partly drawn) | 0
58 | CC(C)(C)CC(C)(C)c1ccc(O)c(Cc2ccc(Cl)cc2Cl)c1 | 10
59 | NC(=O)c1cnccn1 | 20

Row | Structure (SMILES) | suppression of toxicity
60 | O=C(OCc1ccccc1)c1ccccc1 | 2.86
61 | CC(CN(C)C)CN1c2ccccc2CCc2ccccc21 (stereo not drawn) | 4.29
62 | OC(CCN1CCCCC1)(c1ccccc1)c1ccccc1 | 7.86
63 | COc1cc(CNC(=O)CCCC/C=C/C(C)C)ccc1O | 12.9
64 | CO/N=C(\C(=O)NC1C(=O)N2C(C(=O)O)=C(CSc3nc(=O)c(O)nn3C)CS[C@H]12)c1csc(N)n1 (stereo partly drawn) | 12.9
65 | CC1=CC(=O)c2ccccc2C1=O | 11.4
66 | c1ccc2[nH]c(-c3cscn3)nc2c1 | 5
67 | CC12CCC3c4ccc(OCc5ccccc5)cc4CCC3C1C[C@@H](O)[C@@H]2O (stereo partly drawn) | 1.43
68 | CCOC(=O)CCCCCCCCCCCCC1C=CCC1 (stereo not drawn) | 3.58
69 | CC(=O)Oc1cccc(O)c1 | 5
70 | CCCN(CCC)S(=O)(=O)c1ccc(C(=O)O)cc1 | 8.57
71 | Cn1c(=O)c2c(ncn2C)n(C)c1=O | 3.58
72 | Oc1c(Cl)cc(Cl)c(Cl)c1Cc1c(O)c(Cl)cc(Cl)c1Cl | 3.57
73 | N#Cc1ccc2c(c1)N(CCCN1CCC(O)CC1)c1ccccc1S2 | 1.43
74 | O=c1cc(-c2ccccc2)oc2cc(O)cc(O)c12 | 2.86
75 | NC(=O)c1ccc([N+](=O)[O-])cc1Cl | 22.9
76 | COc1ccc2cc(CCC(C)=O)ccc2c1 | 3.58
77 | C/C=C(/C(=C/C)c1ccc(O)cc1)c1ccc(O)cc1 | 3.57
78 | CN(C)CCCN1c2ccccc2CCc2ccc(Cl)cc21 | 4.29
